Assay results published in the supplement of paper PMC10849652.
This is one part of the list.

Amino acid sequences for entries named in this document (tags omitted). A change or cut given only in a name is not applied to a line headed by its entry.
UniProt P42696: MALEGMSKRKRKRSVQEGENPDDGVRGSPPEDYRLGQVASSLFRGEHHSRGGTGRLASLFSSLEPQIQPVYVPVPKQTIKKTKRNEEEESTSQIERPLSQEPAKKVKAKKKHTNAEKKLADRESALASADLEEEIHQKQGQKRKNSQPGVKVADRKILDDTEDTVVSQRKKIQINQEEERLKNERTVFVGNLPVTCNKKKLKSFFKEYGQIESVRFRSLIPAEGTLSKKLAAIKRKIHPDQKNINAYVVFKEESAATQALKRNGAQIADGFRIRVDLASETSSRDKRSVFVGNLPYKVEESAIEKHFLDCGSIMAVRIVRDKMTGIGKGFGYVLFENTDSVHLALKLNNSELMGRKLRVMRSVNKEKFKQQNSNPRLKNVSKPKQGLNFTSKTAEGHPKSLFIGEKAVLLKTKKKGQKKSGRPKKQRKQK
UniProt P18754: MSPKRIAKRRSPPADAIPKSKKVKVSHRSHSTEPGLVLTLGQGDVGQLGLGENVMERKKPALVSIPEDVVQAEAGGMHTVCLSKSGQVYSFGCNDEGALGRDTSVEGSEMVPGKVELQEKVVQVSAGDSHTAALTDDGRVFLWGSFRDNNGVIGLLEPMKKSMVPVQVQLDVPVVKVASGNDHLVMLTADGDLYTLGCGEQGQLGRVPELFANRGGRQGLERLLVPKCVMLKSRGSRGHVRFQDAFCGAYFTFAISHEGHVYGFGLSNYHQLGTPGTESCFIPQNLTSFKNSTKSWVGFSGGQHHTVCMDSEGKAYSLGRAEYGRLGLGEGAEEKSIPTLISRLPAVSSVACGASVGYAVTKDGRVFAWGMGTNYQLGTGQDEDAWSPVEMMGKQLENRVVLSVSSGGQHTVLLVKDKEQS
UniProt Q8TAC1: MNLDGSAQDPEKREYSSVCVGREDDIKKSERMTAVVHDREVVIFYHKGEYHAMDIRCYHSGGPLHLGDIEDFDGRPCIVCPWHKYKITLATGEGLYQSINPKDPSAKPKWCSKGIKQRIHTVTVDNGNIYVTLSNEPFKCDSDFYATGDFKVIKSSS
UniProt Q9Y256: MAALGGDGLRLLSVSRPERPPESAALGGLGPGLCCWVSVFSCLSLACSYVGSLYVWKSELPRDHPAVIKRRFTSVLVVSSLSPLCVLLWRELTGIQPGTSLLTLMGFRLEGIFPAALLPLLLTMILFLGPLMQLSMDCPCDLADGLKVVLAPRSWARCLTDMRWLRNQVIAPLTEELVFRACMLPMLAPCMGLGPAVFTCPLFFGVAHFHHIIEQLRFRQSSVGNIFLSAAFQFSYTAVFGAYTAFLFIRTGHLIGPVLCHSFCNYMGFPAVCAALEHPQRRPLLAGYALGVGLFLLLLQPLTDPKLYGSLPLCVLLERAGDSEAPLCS
UniProt P40937, whole entry, looked up: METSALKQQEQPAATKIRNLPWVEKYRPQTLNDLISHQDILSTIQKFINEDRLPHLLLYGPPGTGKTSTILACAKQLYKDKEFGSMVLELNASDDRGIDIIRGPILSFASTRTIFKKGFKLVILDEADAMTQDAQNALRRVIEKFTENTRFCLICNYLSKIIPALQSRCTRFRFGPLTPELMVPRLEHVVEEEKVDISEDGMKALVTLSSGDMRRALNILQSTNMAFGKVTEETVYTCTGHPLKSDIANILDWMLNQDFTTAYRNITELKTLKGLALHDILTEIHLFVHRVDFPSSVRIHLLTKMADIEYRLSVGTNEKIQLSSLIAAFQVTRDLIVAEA
UniProt Q96AA3: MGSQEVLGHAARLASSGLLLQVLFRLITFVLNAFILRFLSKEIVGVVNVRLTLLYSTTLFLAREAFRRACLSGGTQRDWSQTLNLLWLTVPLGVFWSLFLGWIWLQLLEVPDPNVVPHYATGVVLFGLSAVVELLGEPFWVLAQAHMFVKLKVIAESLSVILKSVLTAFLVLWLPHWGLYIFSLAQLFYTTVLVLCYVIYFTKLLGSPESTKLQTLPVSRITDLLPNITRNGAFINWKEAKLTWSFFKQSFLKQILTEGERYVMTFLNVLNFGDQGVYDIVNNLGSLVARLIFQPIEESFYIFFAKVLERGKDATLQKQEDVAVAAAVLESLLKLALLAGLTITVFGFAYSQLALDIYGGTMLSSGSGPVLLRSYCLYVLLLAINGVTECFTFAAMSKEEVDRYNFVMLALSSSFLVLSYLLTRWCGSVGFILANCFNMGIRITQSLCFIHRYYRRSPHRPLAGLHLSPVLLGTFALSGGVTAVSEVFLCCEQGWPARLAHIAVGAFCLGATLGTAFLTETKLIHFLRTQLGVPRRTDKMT
UniProt P35250, whole entry, looked up: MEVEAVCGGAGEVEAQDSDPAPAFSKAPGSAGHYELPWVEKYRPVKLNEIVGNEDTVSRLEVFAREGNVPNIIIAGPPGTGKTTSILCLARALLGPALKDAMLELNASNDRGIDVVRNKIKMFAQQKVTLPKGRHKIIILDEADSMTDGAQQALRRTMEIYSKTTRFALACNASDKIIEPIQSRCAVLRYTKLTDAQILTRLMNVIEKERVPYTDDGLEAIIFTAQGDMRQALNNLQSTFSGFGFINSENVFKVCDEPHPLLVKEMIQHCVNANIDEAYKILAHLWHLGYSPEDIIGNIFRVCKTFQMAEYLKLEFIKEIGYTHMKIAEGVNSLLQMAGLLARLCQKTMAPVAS
UniProt O43665: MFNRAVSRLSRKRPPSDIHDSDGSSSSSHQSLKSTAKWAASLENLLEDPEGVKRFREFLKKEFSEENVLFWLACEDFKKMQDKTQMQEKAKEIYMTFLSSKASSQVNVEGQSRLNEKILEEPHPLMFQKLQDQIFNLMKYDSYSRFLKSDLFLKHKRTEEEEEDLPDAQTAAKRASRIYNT
UniProt Q96I25: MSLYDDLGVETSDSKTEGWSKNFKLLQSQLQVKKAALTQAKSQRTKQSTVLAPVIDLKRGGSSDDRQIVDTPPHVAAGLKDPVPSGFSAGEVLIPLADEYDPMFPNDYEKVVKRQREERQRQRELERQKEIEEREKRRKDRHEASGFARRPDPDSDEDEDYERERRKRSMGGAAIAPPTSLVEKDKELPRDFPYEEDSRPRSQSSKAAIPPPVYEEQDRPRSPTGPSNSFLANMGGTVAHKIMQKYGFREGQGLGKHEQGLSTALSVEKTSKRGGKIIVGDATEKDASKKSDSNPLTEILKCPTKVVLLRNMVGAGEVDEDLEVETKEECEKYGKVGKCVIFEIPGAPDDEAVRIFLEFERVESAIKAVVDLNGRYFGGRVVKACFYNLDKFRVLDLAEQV
UniProt P51606: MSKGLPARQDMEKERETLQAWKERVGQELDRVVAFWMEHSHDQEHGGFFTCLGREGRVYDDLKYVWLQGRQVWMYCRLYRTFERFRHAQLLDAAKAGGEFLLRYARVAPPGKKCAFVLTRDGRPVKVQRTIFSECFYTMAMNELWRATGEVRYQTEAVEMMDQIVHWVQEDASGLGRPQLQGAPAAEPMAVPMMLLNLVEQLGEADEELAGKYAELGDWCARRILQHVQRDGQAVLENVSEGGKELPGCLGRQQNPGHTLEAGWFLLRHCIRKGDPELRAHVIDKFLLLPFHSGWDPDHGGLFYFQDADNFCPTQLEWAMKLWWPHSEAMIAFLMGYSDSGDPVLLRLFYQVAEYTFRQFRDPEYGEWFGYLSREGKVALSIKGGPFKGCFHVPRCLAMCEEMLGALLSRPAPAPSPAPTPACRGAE
UniProt Q15293: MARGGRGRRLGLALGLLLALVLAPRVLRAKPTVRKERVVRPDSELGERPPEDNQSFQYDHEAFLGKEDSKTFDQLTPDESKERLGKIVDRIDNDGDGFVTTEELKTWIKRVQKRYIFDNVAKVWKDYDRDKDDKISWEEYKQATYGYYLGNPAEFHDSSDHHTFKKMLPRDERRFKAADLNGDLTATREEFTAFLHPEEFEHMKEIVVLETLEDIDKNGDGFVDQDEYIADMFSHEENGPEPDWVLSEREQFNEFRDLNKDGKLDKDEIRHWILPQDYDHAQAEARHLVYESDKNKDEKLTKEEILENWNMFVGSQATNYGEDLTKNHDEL
UniProt Q9Y3B8: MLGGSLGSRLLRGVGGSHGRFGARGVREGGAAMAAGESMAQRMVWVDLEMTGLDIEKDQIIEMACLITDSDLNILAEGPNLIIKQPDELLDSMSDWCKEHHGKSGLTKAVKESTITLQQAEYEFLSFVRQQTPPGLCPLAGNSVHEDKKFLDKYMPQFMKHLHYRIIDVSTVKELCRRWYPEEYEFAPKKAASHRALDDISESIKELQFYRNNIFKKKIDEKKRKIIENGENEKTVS
UniProt Q7Z6E9: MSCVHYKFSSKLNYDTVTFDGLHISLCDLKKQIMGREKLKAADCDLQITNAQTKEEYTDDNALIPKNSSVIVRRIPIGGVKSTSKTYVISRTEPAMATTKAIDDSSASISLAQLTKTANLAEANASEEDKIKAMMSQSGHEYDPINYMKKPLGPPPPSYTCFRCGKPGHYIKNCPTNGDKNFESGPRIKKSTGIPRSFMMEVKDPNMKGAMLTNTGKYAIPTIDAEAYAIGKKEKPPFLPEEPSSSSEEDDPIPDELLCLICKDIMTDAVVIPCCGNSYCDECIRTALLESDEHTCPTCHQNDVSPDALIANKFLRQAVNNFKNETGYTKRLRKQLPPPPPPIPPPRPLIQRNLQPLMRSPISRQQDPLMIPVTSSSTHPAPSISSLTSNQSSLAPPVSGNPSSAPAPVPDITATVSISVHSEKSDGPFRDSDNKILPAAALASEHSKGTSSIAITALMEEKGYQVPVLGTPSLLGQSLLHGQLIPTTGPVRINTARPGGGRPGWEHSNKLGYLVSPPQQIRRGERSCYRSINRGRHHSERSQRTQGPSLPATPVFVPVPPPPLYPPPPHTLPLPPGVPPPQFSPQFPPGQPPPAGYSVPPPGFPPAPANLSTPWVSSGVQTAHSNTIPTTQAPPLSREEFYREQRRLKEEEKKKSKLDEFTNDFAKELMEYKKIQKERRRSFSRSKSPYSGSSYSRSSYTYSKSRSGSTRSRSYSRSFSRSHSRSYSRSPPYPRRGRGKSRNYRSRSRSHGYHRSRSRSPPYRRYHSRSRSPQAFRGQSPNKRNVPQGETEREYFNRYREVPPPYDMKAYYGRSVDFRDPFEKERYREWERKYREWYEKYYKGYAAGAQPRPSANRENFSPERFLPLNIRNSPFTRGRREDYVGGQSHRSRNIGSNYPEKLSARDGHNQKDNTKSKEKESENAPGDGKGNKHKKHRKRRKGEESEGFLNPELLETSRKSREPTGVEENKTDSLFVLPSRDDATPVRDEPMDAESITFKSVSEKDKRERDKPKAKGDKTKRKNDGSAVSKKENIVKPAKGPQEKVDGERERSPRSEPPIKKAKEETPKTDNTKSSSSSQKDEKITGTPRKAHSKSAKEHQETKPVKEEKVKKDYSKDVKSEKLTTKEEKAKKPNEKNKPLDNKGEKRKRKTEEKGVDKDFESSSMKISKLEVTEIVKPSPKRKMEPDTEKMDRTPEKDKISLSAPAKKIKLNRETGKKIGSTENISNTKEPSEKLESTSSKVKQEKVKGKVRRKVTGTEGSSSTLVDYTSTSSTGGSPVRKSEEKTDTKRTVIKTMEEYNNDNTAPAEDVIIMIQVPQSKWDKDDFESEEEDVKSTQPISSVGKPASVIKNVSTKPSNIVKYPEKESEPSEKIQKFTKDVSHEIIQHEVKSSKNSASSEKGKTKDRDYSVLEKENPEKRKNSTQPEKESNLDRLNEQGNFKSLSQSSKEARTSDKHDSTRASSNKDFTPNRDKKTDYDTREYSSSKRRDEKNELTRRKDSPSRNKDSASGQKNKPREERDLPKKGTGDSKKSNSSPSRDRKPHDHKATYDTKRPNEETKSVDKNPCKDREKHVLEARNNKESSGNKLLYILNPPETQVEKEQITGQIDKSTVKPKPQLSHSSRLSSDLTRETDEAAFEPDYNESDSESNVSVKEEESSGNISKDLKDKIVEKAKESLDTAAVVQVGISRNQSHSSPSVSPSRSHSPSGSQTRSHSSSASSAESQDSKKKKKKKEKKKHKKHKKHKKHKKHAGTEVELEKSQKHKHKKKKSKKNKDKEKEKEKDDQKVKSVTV
UniProt Q969G6: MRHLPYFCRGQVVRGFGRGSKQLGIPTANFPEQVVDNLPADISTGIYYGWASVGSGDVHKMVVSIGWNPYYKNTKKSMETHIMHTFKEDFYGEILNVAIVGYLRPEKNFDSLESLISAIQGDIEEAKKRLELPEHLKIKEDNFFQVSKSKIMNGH

Experiments:
Experiment in all cases: log2 fold change, soluble protein after heating vs DMSO (PISA); higher = thermal stabilisation; K562 lysate, 10 uM; active = over 0.2 and 3.5 SD of the protein, either way, in both replicates (recomputed)
alvocidib = compound: CN1CC[C@H](c2c(O)cc(O)c3c(=O)cc(-c4ccccc4Cl)oc23)[C@H](O)C1 [alvocidib]
Summary of the method: (§1)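 Values give the log-two fold change in thermal stability against solvent controls, from duplicates. Crude K562 extract at 1 mg/mL protein, made by dounce homogenisation in PBS pH 7.4 with 1 mM MgCl2, was treated with 10 μM compound for 30 min. After 3 min heating across 48°C-58°C, aliquots were pooled, adjusted to 0.5% NP-40 at 4°C and centrifuged at 21,000xg for 90 min. The supernatant was measured by TMTpro 16plex LC-MS/MS with channel sums equalised.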

Tubastatin A = compound: CN1CCc2c(c3ccccc3n2Cc2ccc(C(=O)NO)cc2)C1 [Tubastatin A]
Summary of the method: as §1

[1] = compound: CNC(=O)C1=CC=CC=C1NC2=NC(=NC=C2Cl)NC3=C(C=C(C=C3)N4CCOCC4)OC
Summary of the method: as §1

defactinib = compound: CNC(=O)c1ccc(Nc2ncc(C(F)(F)F)c(NCc3nccnc3N(C)S(C)(=O)=O)n2)cc1 [defactinib]
Summary of the method: as §1

[2] = compound: CNc1nc(-c2ccc3c(N)n[nH]c3c2)cc(N2C[C@@H](C(=O)NC3CCCCC3)CC[C@H]2C)n1
Summary of the method: as §1

encorafenib = compound: COC(=O)N[C@@H](C)CNc1nccc(-c2cn(C(C)C)nc2-c2cc(Cl)cc(NS(C)(=O)=O)c2F)n1 [encorafenib]
Summary of the method: as §1

[3] = compound: COC(=O)[C@H](CCSC)NC(=O)C1=C(C=C(C=C1)NC[C@H](CS)N)C2=CC=CC=C2
Summary of the method: as §1

alisertib = compound: COc1cc(Nc2ncc3c(n2)-c2ccc(Cl)cc2C(c2c(F)cccc2OC)=NC3)ccc1C(=O)O [alisertib]
Summary of the method: as §1

[4] = compound: COc1cc2nc(-c3cc(F)ccc3O)nc(N[C@@H]3CNC[C@H]3C(C)(C)O)c2cc1OC
Summary of the method: as §1

gefitinib = compound: COc1cc2ncnc(Nc3ccc(F)c(Cl)c3)c2cc1OCCCN1CCOCC1 [gefitinib]
Summary of the method: as §1

lapatinib = compound: CS(=O)(=O)CCNCc1ccc(-c2ccc3ncnc(Nc4ccc(OCc5cccc(F)c5)c(Cl)c4)c3c2)o1 [lapatinib]
Summary of the method: as §1

pictilisib = compound: CS(=O)(=O)N1CCN(Cc2cc3nc(-c4cccc5[nH]ncc45)nc(N4CCOCC4)c3s2)CC1 [pictilisib]
Summary of the method: as §1

crizotinib = compound: C[C@@H](Oc1cc(-c2cnn(C3CCNCC3)c2)cnc1N)c1c(Cl)ccc(F)c1Cl [crizotinib]
Summary of the method: as §1

[5] = compound: C[C@H](C1=CC=C(C=C1)C(=O)NC2=C3C=CNC3=NC=C2)N
Summary of the method: as §1

duvelisib = compound: C[C@H](Nc1ncnc2nc[nH]c12)c1cc2cccc(Cl)c2c(=O)n1-c1ccccc1 [duvelisib]
Summary of the method: as §1

gandotinib = compound: Cc1cc(Nc2cc(CN3CCOCC3)c3nc(C)c(Cc4ccc(Cl)cc4F)n3n2)n[nH]1 [gandotinib]
Summary of the method: as §1

tozasertib = compound: Cc1cc(Nc2cc(N3CCN(C)CC3)nc(Sc3ccc(NC(=O)C4CC4)cc3)n2)n[nH]1 [tozasertib]
Summary of the method: as §1

doramapimod = compound: Cc1ccc(-n2nc(C(C)(C)C)cc2NC(=O)Nc2ccc(OCCN3CCOCC3)c3ccccc23)cc1 [doramapimod]
Summary of the method: as §1

bafetinib = compound: Cc1ccc(NC(=O)c2ccc(CN3CC[C@H](N(C)C)C3)c(C(F)(F)F)c2)cc1Nc1nccc(-c2cncnc2)n1 [bafetinib]
Summary of the method: as §1

[6] = compound: Cc1cccc(CC(=O)N2CCc3c2ccc(-c2cn(C)c4ncnc(N)c24)c3F)n1
Summary of the method: as §1

Measured: log2 fold change

RBM34 (UniProt P42696)
inactive: alvocidib 0.003 | Tubastatin A -0.007 | [1] -0.009 | defactinib 0.037 | [2] 0.021 | encorafenib 0.05 | [3] 0.03 | alisertib -0.002 | [4] 0.013 | gefitinib -0.028 | lapatinib -0.01 | pictilisib -0.036 | crizotinib -0.07 | [5] -0.021 | duvelisib -0.018 | gandotinib -0.016 | tozasertib -0.019 | doramapimod -0.001 | bafetinib -0.086 | [6] 0.037

RAVER1 (UniProt E9PAU2)
inactive: alvocidib 0.033 | Tubastatin A 0.018 | [1] 0.074 | defactinib 0.024 | [2] 0.044 | encorafenib 0.099 | [3] 0.09 | alisertib 0.075 | [4] 0.027 | gefitinib 0.056 | lapatinib 0.03 | pictilisib 0.067 | crizotinib 0.01 | [5] 0.018 | duvelisib -0.021 | gandotinib -0.033 | tozasertib -0.087 | doramapimod -0.014 | bafetinib 0.039 | [6] -0.002

RCC1 isoform 2 (UniProt P18754)
inactive: alvocidib 0.012 | Tubastatin A -0.168 | [1] 0.018 | defactinib 0.055 | [2] -0.007 | encorafenib 0.006 | [3] 0.151 | alisertib 0.006 | [4] -0.017 | gefitinib -0.003 | lapatinib -0.018 | pictilisib 0.009 | crizotinib -0.063 | [5] -0.019 | duvelisib 0.017 | gandotinib -0.066 | tozasertib 0.011 | doramapimod -0.017 | bafetinib -0.01 | [6] 0.034

RFESD isoform 2 (UniProt Q8TAC1)
inactive: alvocidib -0.008 | Tubastatin A 0.025 | [1] -0.037 | defactinib -0.065 | [2] 0 | encorafenib -0.01 | [3] -0.049 | alisertib -0.04 | [4] 0.016 | gefitinib -0.028 | lapatinib 0.008 | pictilisib 0.029 | crizotinib 0.052 | [5] 0.004 | duvelisib 0.03 | gandotinib -0.041 | tozasertib -0.002 | doramapimod 0.007 | bafetinib -0.047 | [6] -0.017

RCE1 (UniProt Q9Y256)
inactive: alvocidib -0.037 | Tubastatin A 0.023 | [1] -0.039 | defactinib 0.271 | [2] 0.064 | encorafenib 0.011 | [3] -0.068 | alisertib -0.125 | [4] 0.057 | gefitinib 0.19 | lapatinib 0.189 | pictilisib -0.003 | crizotinib -0.04 | [5] 0.006 | duvelisib 0.042 | gandotinib -0.131 | tozasertib -0.029 | doramapimod -0.11 | bafetinib 0.032 | [6] 0.01

RFC5 (UniProt P40937)
inactive: alvocidib 0.004 | Tubastatin A -0.203 | [1] 0.003 | defactinib 0.008 | [2] -0.004 | encorafenib 0.051 | [3] 0.148 | alisertib -0.006 | [4] -0.003 | gefitinib 0 | lapatinib 0.007 | pictilisib -0.058 | crizotinib -0.056 | [5] -0.047 | duvelisib 0.016 | gandotinib -0.068 | tozasertib 0.018 | doramapimod 0.026 | bafetinib -0.039 | [6] 0.018

RFT1 (UniProt Q96AA3)
inactive: alvocidib 0.001 | Tubastatin A -0.042 | [1] 0.013 | defactinib -0.057 | [2] 0.015 | encorafenib 0.093 | [3] -0.066 | alisertib -0.025 | [4] 0.05 | gefitinib 0.076 | lapatinib -0.008 | pictilisib 0.01 | crizotinib -0.003 | [5] 0.006 | duvelisib -0.025 | gandotinib -0.03 | tozasertib 0.121 | doramapimod 0.078 | bafetinib 0.055 | [6] -0.002

RFC2 (UniProt P35250)
inactive: alvocidib -0.025 | Tubastatin A -0.21 | [1] -0.012 | defactinib 0.023 | [2] -0.055 | encorafenib 0.042 | [3] 0.113 | alisertib 0.014 | [4] 0.005 | gefitinib 0.007 | lapatinib -0.004 | pictilisib 0.015 | crizotinib -0.046 | [5] -0.025 | duvelisib 0.025 | gandotinib -0.007 | tozasertib 0.005 | doramapimod 0.042 | bafetinib -0.074 | [6] 0.041

RGS10 (UniProt O43665)
inactive: alvocidib 0.005 | Tubastatin A 0.076 | [1] 0.026 | defactinib 0.033 | [2] 0.022 | encorafenib -0.004 | [3] -0.069 | alisertib -0.01 | [4] -0.018 | gefitinib -0.044 | lapatinib -0.018 | pictilisib 0.002 | crizotinib 0.05 | [5] 0.081 | duvelisib -0.005 | gandotinib 0 | tozasertib -0.04 | doramapimod -0.053 | bafetinib 0.039 | [6] -0.062

Retrieved one by one from above, two records:
RFC2 (UniProt P35250)
inactive: alvocidib -0.025 | Tubastatin A -0.21 | [1] -0.012 | defactinib 0.023 | [2] -0.055 | encorafenib 0.042 | [3] 0.113 | alisertib 0.014 | [4] 0.005 | gefitinib 0.007 | lapatinib -0.004 | pictilisib 0.015 | crizotinib -0.046 | [5] -0.025 | duvelisib 0.025 | gandotinib -0.007 | tozasertib 0.005 | doramapimod 0.042 | bafetinib -0.074 | [6] 0.041

RFT1 (UniProt Q96AA3)
inactive: alvocidib 0.001 | Tubastatin A -0.042 | [1] 0.013 | defactinib -0.057 | [2] 0.015 | encorafenib 0.093 | [3] -0.066 | alisertib -0.025 | [4] 0.05 | gefitinib 0.076 | lapatinib -0.008 | pictilisib 0.01 | crizotinib -0.003 | [5] 0.006 | duvelisib -0.025 | gandotinib -0.03 | tozasertib 0.121 | doramapimod 0.078 | bafetinib 0.055 | [6] -0.002

(listing goes on)

RBM17 (UniProt Q96I25)
inactive: alvocidib 0.009 | Tubastatin A -0.084 | [1] 0.019 | defactinib -0.002 | [2] -0.017 | encorafenib 0.01 | [3] 0.028 | alisertib 0.014 | [4] -0.015 | gefitinib 0.008 | lapatinib 0.003 | pictilisib -0.004 | crizotinib -0.012 | [5] 0.017 | duvelisib -0.009 | gandotinib -0.077 | tozasertib -0.033 | doramapimod 0.014 | bafetinib -0.047 | [6] -0.052

RENBP (UniProt P51606)
inactive: alvocidib -0.04 | Tubastatin A 0.097 | [1] 0 | defactinib -0.007 | [2] -0.004 | encorafenib 0.022 | [3] -0.031 | alisertib 0.005 | [4] -0.118 | gefitinib 0.013 | lapatinib 0.007 | pictilisib -0.012 | crizotinib 0.018 | [5] -0.027 | duvelisib -0.046 | gandotinib 0 | tozasertib 0.051 | doramapimod -0.027 | bafetinib -0.023 | [6] 0.028

RCN1 (UniProt Q15293)
inactive: alvocidib -0.023 | Tubastatin A -0.006 | [1] 0.018 | defactinib -0.012 | [2] -0.076 | encorafenib -0.013 | [3] 0.016 | alisertib -0.012 | [4] 0.027 | gefitinib 0.059 | lapatinib 0.001 | pictilisib -0.036 | crizotinib 0.115 | [5] -0.009 | duvelisib 0.008 | gandotinib 0.012 | tozasertib 0.038 | doramapimod -0.046 | bafetinib -0.052 | [6] -0.018

RHEB (UniProt Q15382)
inactive: alvocidib -0.015 | Tubastatin A -0.062 | [1] 0.008 | defactinib 0.026 | [2] -0.125 | encorafenib 0.029 | [3] 0.076 | alisertib 0.045 | [4] -0.003 | gefitinib 0.017 | lapatinib -0.036 | pictilisib -0.019 | crizotinib -0.011 | [5] -0.091 | duvelisib -0.009 | gandotinib 0.018 | tozasertib 0.039 | doramapimod 0.061 | bafetinib -0.059 | [6] 0.092

REXO2 (UniProt Q9Y3B8)
inactive: alvocidib 0.036 | Tubastatin A 0.009 | [1] -0.036 | defactinib 0.004 | [2] 0.023 | encorafenib 0 | [3] -0.02 | alisertib 0.015 | [4] 0.014 | gefitinib -0.03 | lapatinib -0.038 | pictilisib -0.032 | crizotinib 0.047 | [5] 0.028 | duvelisib 0.019 | gandotinib -0.05 | tozasertib 0.061 | doramapimod -0.026 | bafetinib -0.019 | [6] -0.076

RBBP6 (UniProt Q7Z6E9)
inactive: alvocidib 0.009 | Tubastatin A -0.03 | [1] 0.057 | defactinib -0.012 | [2] 0.023 | encorafenib 0.083 | [3] -0.164 | alisertib 0.029 | [4] -0.015 | gefitinib -0.021 | lapatinib -0.028 | pictilisib -0.01 | crizotinib -0.018 | [5] -0.007 | duvelisib 0.03 | gandotinib 0.033 | tozasertib 0.035 | doramapimod 0.086 | bafetinib -0.025 | [6] -0.023

RFK (UniProt Q969G6)
inactive: alvocidib 0.011 | Tubastatin A 0.001 | [1] 0.007 | defactinib 0.006 | [2] -0.143 | encorafenib 0.007 | [3] -0.019 | alisertib 0.004 | [4] 0.047 | gefitinib 0.022 | lapatinib -0.005 | pictilisib 0.003 | crizotinib 0.031 | [5] -0.053 | duvelisib 0.048 | gandotinib 0.082 | tozasertib -0.078 | doramapimod 0.022 | bafetinib -0.084 | [6] -0.004
